Results on 39 compounds are retold here after the supplement of paper PMC11348887.

Counter-ions that a name gives are not always drawn. This is one part of the list. Most values lie at the level of the controls, where differences are scatter.

One assay relates to hPSC-derived cortical neurons (WA09). The assay can be described thus: nucleus area z-score vs screen plate; higher = larger nuclei (more mature). The note with it: 5 µM; treatment: days 7-14 after plating, readout day 21.
Turning to `C[n+]1ccccc1/C=N/O` [Pralidoxime chloride], the nucleus area z-score was found to be 2.73.

The compound `Cc1nc(Nc2cnn(C3CCNCC3)c2)nc2c1N(C)C(=O)c1cc3ccccc3cc1N2C` returned a nucleus area z-score of -3.22.

`O=C(O)c1ccc(O)c2ncccc12` registered a nucleus area z-score of -1.65.

`CCOc1cn(-c2ccc(F)cc2C)nc1C(=O)Nc1ccc(Oc2ccnc3cc(OC)c(OC)cc23)c(F)c1` gave a nucleus area z-score of -0.178.

Consider `Cc1cc(NC(=O)Nc2ccc(N(C)C)cc2)c2cc(F)cc(F)c2n1`, for which the nucleus area z-score turned out to be 0.464.

`CC(C)c1ccc(NC(=O)Cn2cnc3c2c(=O)n(C)c(=O)n3C)cc1` yielded a nucleus area z-score of -0.54.

In turn, `Cc1c(NC(=O)OC[C@@H]2COCCN2)cn2ncnc(Nc3ccc4c(cnn4Cc4cccc(F)c4)c3)c12` came in with a nucleus area z-score of 2.7.

For the compound `CCCCOc1cc(C(=O)OCCN(CC)CC)ccc1N` [Oxybuprocaine HCl], the nucleus area z-score stood at 0.343.

Turning to `OC(CCN1CCCCC1)(c1ccccc1)C1CCCCC1` (stereo not drawn) [Trihexyphenidyl hydrochloride], the nucleus area z-score came out at 0.336.

For the compound `CCOC(=O)CC(=O)N1CCSC1COc1ccccc1OC` (stereo not drawn) [Moguisteine], the nucleus area z-score is -0.0404.

The compound `CNc1nc(-c2ccc3c(N)n[nH]c3c2)cc(N2C[C@@H](C(=O)NC3CCCCC3)CC[C@H]2C)n1` showed a nucleus area z-score of -0.183.

Compound `CN(C)c1ccc(C(=C2C=CC(=[N+](C)C)C=C2)c2ccc(N(C)C)cc2)cc1` [Crystal Violet] gave a nucleus area z-score of -11.

In turn, `C[C@H](NC(=O)Cc1cc(F)cc(F)c1)C(=O)N[C@H](C(=O)OC(C)(C)C)c1ccccc1` displayed a nucleus area z-score of 0.00954.

`CCN[C@H]1C[C@H](C)S(=O)(=O)c2sc(S(N)(=O)=O)cc21` [Dorzolamide HCl] gave a nucleus area z-score of 0.908.

The compound `CC(C)C(=O)Oc1ccc(CO)cc1[C@H](CCN(C(C)C)C(C)C)c1ccccc1` [Fesoterodine Fumarate] yielded a nucleus area z-score of -0.817.

In the case of `CC(C)c1nc(CN(C)C(=O)N[C@@H](CCN2CCOCC2)C(=O)N[C@H](CC[C@H](Cc2ccccc2)NC(=O)OCc2cncs2)Cc2ccccc2)cs1` [Cobicistat (GS-9350)], the nucleus area z-score is -1.7.

`O=C1NCCc2[nH]c(-c3ccncc3)cc21` gave a nucleus area z-score of -2.43.

In the case of `CCC(=O)O[C@@H](O[P@](=O)(CCCCc1ccccc1)CC(=O)N1C[C@H](C2CCCCC2)C[C@H]1C(=O)O)C(C)C` [Fosinopril Sodium], the nucleus area z-score turned out to be 0.0879.

For `CCCOc1ccc(CCc2nc3cc(-c4c(C)noc4C)ccc3n2CCN2CCOCC2)cc1`, the nucleus area z-score was -0.367.

`CN1C(=O)C(Cc2c[nH]c3ccccc23)NC1=S` (stereo not drawn) [Necrostatin-1] displayed a nucleus area z-score of 0.0777.

`O=C(c1ccc(F)cc1)N1CCC[C@H](c2nc(-c3ccc(F)cc3)no2)C1` registered a nucleus area z-score of 0.808.

Consider `Cc1ccc(S(=O)(=O)/C=C/C#N)cc1`, for which the nucleus area z-score is -9.82.

`COc1ccc2ccc(=O)oc2c1CC=C(C)C` [Osthole] yielded a nucleus area z-score of 0.0248.

For the compound `Nc1ncn([C@@H]2O[C@H](CO)[C@@H](O)[C@H]2O)c(=O)n1` [Azacitidine], the nucleus area z-score is -0.211.

Compound `CC(C)CCn1c(CN2CCN(C(=O)C3CC3)CC2)nc2c1c(=O)n(C)c(=O)n2C` yielded a nucleus area z-score of 0.789.

`NC(=O)N1CCC(CC(=O)N2CCC([C@H]3c4ncc(Br)cc4CCc4cc(Cl)cc(Br)c43)CC2)CC1` [Lonafarnib] yielded a nucleus area z-score of -1.28.

The compound `O=C(O)c1ccc(Nc2ncc3c(n2)-c2ccc(Cl)cc2C(c2c(F)cccc2F)=NC3)cc1` returned a nucleus area z-score of 0.761.

`O=C([O-])c1ccccc1O.[Na+]` [Sodium salicylate] had a nucleus area z-score of 0.0156.

In the case of `Cc1cc(C)nc(SCC(=O)Nc2ncc(Cc3cccc4ccccc34)s2)n1`, the nucleus area z-score came out at 0.269.

Compound `CC(C)Oc1ccc2c(=O)c(-c3ccccc3)coc2c1` [Ipriflavone (Osteofix)] showed a nucleus area z-score of 1.25.

Consider `Oc1c(Cl)cc(Cl)c2cccnc12` [Chloroxine], for which the nucleus area z-score is 1.58.

`CC(C)NCC(O)c1ccc(NS(C)(=O)=O)cc1` (stereo not drawn) [Sotalol] gave a nucleus area z-score of 0.517.

Turning to `CCCNC(=O)NS(=O)(=O)c1ccc(Cl)cc1` [Chlorpropamide], the nucleus area z-score is -0.691.

The compound `CCNC(=O)c1[nH]nc(-c2cc(Cl)c(O)cc2O)c1-c1ccc(OC)cc1` displayed a nucleus area z-score of 4.39.

`OCc1ccccc1` [Benzyl alcohol] registered a nucleus area z-score of 1.41.

With `Clc1ccc(COC(Cn2ccnc2)c2ccc(Cl)cc2Cl)cc1` (stereo not drawn) [Econazole nitrate], the nucleus area z-score is -2.55.

The compound `CCCC(=O)Nc1ccc(OCC(O)CNC(C)C)c(C(C)=O)c1` (stereo not drawn) [Acebutolol HCl] registered a nucleus area z-score of -0.645.

Compound `C#CCN[C@@H]1CCc2ccccc21` [Rasagiline Mesylate] returned a nucleus area z-score of 0.257.

For `O=S(=O)(c1cccc2cnccc12)N1CCCNCC1` [Fasudil (HA-1077) HCl], the nucleus area z-score stood at 0.744.

For another assay the test system is unchanged. As to the kind of experiment: total neurite length per nucleus (MAP2) z-score; higher = more neurite growth. Conditions: 5 µM; treatment: days 7-14 after plating, readout day 21.
On to `C[n+]1ccccc1/C=N/O` [Pralidoxime chloride], for which the “total neurite length per nucleus (z-score)” value worked out at 1.16.

As for `Cc1nc(Nc2cnn(C3CCNCC3)c2)nc2c1N(C)C(=O)c1cc3ccccc3cc1N2C`, the “total neurite length per nucleus (z-score)” value was -1.11.

With `O=C(O)c1ccc(O)c2ncccc12`, the “total neurite length per nucleus (z-score)” value was -0.557.

As to `CCOc1cn(-c2ccc(F)cc2C)nc1C(=O)Nc1ccc(Oc2ccnc3cc(OC)c(OC)cc23)c(F)c1`, the “total neurite length per nucleus (z-score)” value is 0.596.

Consider `Cc1cc(NC(=O)Nc2ccc(N(C)C)cc2)c2cc(F)cc(F)c2n1`, for which the “total neurite length per nucleus (z-score)” value was -0.462.

Turning to `CC(C)c1ccc(NC(=O)Cn2cnc3c2c(=O)n(C)c(=O)n3C)cc1`, the “total neurite length per nucleus (z-score)” value was found to be 0.499.

Consider `Cc1c(NC(=O)OC[C@@H]2COCCN2)cn2ncnc(Nc3ccc4c(cnn4Cc4cccc(F)c4)c3)c12`, for which the “total neurite length per nucleus (z-score)” value was 0.502.

In the case of `CCCCOc1cc(C(=O)OCCN(CC)CC)ccc1N` [Oxybuprocaine HCl], the “total neurite length per nucleus (z-score)” value is 0.348.

Regarding `OC(CCN1CCCCC1)(c1ccccc1)C1CCCCC1` (stereo not drawn) [Trihexyphenidyl hydrochloride], the “total neurite length per nucleus (z-score)” value stood at 1.05.

As to `CCOC(=O)CC(=O)N1CCSC1COc1ccccc1OC` (stereo not drawn) [Moguisteine], the “total neurite length per nucleus (z-score)” value was -0.821.

Consider `CNc1nc(-c2ccc3c(N)n[nH]c3c2)cc(N2C[C@@H](C(=O)NC3CCCCC3)CC[C@H]2C)n1`, for which the “total neurite length per nucleus (z-score)” value was -0.317.

Regarding `CN(C)c1ccc(C(=C2C=CC(=[N+](C)C)C=C2)c2ccc(N(C)C)cc2)cc1` [Crystal Violet], the “total neurite length per nucleus (z-score)” value is -4.4.

In the case of `C[C@H](NC(=O)Cc1cc(F)cc(F)c1)C(=O)N[C@H](C(=O)OC(C)(C)C)c1ccccc1`, the “total neurite length per nucleus (z-score)” value was -0.0175.

As to `CCN[C@H]1C[C@H](C)S(=O)(=O)c2sc(S(N)(=O)=O)cc21` [Dorzolamide HCl], the “total neurite length per nucleus (z-score)” value came to 0.16.

In the case of `CC(C)C(=O)Oc1ccc(CO)cc1[C@H](CCN(C(C)C)C(C)C)c1ccccc1` [Fesoterodine Fumarate], the “total neurite length per nucleus (z-score)” value is -0.0238.

Regarding `CC(C)c1nc(CN(C)C(=O)N[C@@H](CCN2CCOCC2)C(=O)N[C@H](CC[C@H](Cc2ccccc2)NC(=O)OCc2cncs2)Cc2ccccc2)cs1` [Cobicistat (GS-9350)], the “total neurite length per nucleus (z-score)” value was -1.35.

Take `O=C1NCCc2[nH]c(-c3ccncc3)cc21`: the “total neurite length per nucleus (z-score)” value was -0.206.

For the compound `CCC(=O)O[C@@H](O[P@](=O)(CCCCc1ccccc1)CC(=O)N1C[C@H](C2CCCCC2)C[C@H]1C(=O)O)C(C)C` [Fosinopril Sodium], the “total neurite length per nucleus (z-score)” value is -0.824.

`CCCOc1ccc(CCc2nc3cc(-c4c(C)noc4C)ccc3n2CCN2CCOCC2)cc1`: the “total neurite length per nucleus (z-score)” value is -0.255.

In the case of `CN1C(=O)C(Cc2c[nH]c3ccccc23)NC1=S` (stereo not drawn) [Necrostatin-1], the “total neurite length per nucleus (z-score)” value is -0.253.

For the compound `O=C(c1ccc(F)cc1)N1CCC[C@H](c2nc(-c3ccc(F)cc3)no2)C1`, the “total neurite length per nucleus (z-score)” value was -0.365.

As for `Cc1ccc(S(=O)(=O)/C=C/C#N)cc1`, the “total neurite length per nucleus (z-score)” value is -0.999.

On to `COc1ccc2ccc(=O)oc2c1CC=C(C)C` [Osthole], for which the “total neurite length per nucleus (z-score)” value stood at 1.08.

Turning to `Nc1ncn([C@@H]2O[C@H](CO)[C@@H](O)[C@H]2O)c(=O)n1` [Azacitidine], the “total neurite length per nucleus (z-score)” value was 0.667.

`CC(C)CCn1c(CN2CCN(C(=O)C3CC3)CC2)nc2c1c(=O)n(C)c(=O)n2C`: the “total neurite length per nucleus (z-score)” value was -0.898.

On to `NC(=O)N1CCC(CC(=O)N2CCC([C@H]3c4ncc(Br)cc4CCc4cc(Cl)cc(Br)c43)CC2)CC1` [Lonafarnib], for which the “total neurite length per nucleus (z-score)” value was 0.621.

Take `O=C(O)c1ccc(Nc2ncc3c(n2)-c2ccc(Cl)cc2C(c2c(F)cccc2F)=NC3)cc1`: the “total neurite length per nucleus (z-score)” value stood at 1.44.

`O=C([O-])c1ccccc1O.[Na+]` [Sodium salicylate]: the “total neurite length per nucleus (z-score)” value is -1.59.

For `Cc1cc(C)nc(SCC(=O)Nc2ncc(Cc3cccc4ccccc34)s2)n1`, the “total neurite length per nucleus (z-score)” value was 0.516.

Turning to `CC(C)Oc1ccc2c(=O)c(-c3ccccc3)coc2c1` [Ipriflavone (Osteofix)], the “total neurite length per nucleus (z-score)” value is -0.296.

On to `Oc1c(Cl)cc(Cl)c2cccnc12` [Chloroxine], for which the “total neurite length per nucleus (z-score)” value amounted to 0.0807.

As to `CC(C)NCC(O)c1ccc(NS(C)(=O)=O)cc1` (stereo not drawn) [Sotalol], the “total neurite length per nucleus (z-score)” value worked out at 1.07.

On to `CCCNC(=O)NS(=O)(=O)c1ccc(Cl)cc1` [Chlorpropamide], for which the “total neurite length per nucleus (z-score)” value turned out to be 0.472.

Consider `CCNC(=O)c1[nH]nc(-c2cc(Cl)c(O)cc2O)c1-c1ccc(OC)cc1`, for which the “total neurite length per nucleus (z-score)” value was found to be 4.59.

As to `OCc1ccccc1` [Benzyl alcohol], the “total neurite length per nucleus (z-score)” value was -0.138.

For `Clc1ccc(COC(Cn2ccnc2)c2ccc(Cl)cc2Cl)cc1` (stereo not drawn) [Econazole nitrate], the “total neurite length per nucleus (z-score)” value was -0.124.

Take `CCCC(=O)Nc1ccc(OCC(O)CNC(C)C)c(C(C)=O)c1` (stereo not drawn) [Acebutolol HCl]: the “total neurite length per nucleus (z-score)” value is 1.73.

In the case of `C#CCN[C@@H]1CCc2ccccc21` [Rasagiline Mesylate], the “total neurite length per nucleus (z-score)” value worked out at 1.04.

`O=S(=O)(c1cccc2cnccc12)N1CCCNCC1` [Fasudil (HA-1077) HCl]: the “total neurite length per nucleus (z-score)” value is -1.51.
